Data: paper PMC12955996
Results are given in words; binding and its absence hold for the method and conditions named. Binding seen in cells or lysates may run through a third protein. Here binding means that the protein was enriched with, or labelled near, the bait; the list need not be complete.

Protein sequences, listed by entry. Tags and fused reporters are not part of them. Lines headed by an entry give the natural chain unless they say otherwise; changes in a name come on top.
UniProt Q8BH61: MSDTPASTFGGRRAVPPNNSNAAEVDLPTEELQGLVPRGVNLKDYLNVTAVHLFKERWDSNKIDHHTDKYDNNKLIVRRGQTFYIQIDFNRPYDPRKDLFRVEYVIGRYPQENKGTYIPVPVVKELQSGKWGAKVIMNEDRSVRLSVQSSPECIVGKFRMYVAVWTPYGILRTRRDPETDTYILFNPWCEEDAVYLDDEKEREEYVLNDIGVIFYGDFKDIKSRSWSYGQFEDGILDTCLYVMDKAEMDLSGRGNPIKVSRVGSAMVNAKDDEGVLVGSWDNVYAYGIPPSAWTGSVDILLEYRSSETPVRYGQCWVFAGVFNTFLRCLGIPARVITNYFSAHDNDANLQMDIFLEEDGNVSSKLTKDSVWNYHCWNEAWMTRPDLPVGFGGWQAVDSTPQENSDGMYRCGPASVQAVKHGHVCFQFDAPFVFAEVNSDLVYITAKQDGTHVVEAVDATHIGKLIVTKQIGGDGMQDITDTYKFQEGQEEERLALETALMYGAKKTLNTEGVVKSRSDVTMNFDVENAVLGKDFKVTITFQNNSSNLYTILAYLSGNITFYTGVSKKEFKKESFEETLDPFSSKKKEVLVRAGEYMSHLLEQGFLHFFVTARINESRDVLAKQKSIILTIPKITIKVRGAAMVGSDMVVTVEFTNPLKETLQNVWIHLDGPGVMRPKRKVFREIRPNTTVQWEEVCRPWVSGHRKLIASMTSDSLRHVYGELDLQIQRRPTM
UniProt P52480: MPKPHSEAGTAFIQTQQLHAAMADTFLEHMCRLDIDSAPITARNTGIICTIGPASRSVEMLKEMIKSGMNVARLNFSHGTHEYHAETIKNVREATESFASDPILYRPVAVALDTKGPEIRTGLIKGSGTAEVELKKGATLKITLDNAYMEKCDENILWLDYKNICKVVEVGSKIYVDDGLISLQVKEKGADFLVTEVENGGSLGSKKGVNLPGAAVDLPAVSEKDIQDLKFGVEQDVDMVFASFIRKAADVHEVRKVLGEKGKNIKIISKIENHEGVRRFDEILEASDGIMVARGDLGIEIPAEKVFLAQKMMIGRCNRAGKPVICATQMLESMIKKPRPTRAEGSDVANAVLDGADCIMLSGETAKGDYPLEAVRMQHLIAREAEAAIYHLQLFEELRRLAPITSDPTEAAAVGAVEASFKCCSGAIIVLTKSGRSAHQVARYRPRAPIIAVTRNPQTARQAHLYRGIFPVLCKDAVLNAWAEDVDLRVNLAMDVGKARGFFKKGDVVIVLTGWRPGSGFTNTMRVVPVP

Target: Coagulation Factor XIII Subunit A (F13A1) (mouse (endogenous in BMDMs)) (UniProt Q8BH61)
Experiment: affinity purification with mass spectrometry; mass spectrometry (LC‐MS/MS) on F13A1 immunoprecipitates from BMDMs

Q: For “pyruvate kinase M2 isoform (PKM2) (from UniProt P52480 1-531)”, which binding is on record?
A: Its binding is “binds”.
